Data taken from PMC5447282.
No constants are given. Whether binding was seen depends on the method and setting. Binding seen in cells or lysates may run through a third protein. Some results given as binding are weak or reduced against the parent protein; the word gives no strength.

Protein sequences, listed by entry. Tags and fused reporters are not part of them.
UniProt Q13330: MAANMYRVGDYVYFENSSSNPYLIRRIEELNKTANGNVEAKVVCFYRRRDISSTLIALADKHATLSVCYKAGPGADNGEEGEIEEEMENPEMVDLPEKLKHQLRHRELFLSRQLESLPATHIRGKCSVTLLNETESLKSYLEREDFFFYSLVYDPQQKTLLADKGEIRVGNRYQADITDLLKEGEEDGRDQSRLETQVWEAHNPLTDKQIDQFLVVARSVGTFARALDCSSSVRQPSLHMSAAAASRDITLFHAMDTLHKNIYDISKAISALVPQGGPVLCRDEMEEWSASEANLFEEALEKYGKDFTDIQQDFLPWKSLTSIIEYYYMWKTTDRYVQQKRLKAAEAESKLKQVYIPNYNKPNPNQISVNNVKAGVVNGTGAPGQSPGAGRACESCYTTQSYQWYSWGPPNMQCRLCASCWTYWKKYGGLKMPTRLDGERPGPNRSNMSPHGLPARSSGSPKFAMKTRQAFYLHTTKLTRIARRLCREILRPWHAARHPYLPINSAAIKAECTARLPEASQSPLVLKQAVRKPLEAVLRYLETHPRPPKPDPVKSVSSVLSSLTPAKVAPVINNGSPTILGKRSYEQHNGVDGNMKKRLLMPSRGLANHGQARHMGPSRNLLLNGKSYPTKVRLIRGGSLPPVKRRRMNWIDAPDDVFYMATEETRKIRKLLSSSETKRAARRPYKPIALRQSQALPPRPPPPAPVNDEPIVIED
UniProt Q16665: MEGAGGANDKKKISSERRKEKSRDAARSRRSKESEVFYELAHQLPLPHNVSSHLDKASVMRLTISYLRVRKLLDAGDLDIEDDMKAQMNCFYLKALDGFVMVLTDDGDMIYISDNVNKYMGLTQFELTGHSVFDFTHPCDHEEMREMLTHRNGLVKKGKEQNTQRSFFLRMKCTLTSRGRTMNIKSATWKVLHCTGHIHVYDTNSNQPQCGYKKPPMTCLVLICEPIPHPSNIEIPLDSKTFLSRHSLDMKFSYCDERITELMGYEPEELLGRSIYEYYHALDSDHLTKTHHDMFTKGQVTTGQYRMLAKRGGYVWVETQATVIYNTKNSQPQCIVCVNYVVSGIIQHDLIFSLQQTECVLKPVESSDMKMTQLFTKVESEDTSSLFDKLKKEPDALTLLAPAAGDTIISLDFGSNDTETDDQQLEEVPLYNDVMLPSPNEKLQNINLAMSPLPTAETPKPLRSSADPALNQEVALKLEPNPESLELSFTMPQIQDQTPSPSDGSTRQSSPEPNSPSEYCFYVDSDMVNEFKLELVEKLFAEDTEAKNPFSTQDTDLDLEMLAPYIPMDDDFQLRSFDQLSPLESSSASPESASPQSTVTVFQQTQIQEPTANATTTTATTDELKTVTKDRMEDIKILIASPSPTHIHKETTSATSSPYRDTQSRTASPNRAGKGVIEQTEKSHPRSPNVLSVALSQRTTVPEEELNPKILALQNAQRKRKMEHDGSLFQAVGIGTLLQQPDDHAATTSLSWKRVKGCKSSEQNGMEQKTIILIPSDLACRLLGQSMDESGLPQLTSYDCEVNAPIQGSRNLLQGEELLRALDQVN

Legend:
[1] = biological target: Flag-MTA1 (metastasis-associated protein 1) (UniProt Q13330); experiment: co-IP; anti-Flag immunoprecipitation from MTA1-Flag-HepG2 cells transiently transfected with HIF-1α-HA; cells untreated or exposed to hypoxia (1% O2) for 4 h; binding told for hypoxic conditions
GST-MTA1 = GST-MTA1 (UniProt Q13330); experiment: pull-down; 1 μg GST-MTA1 immobilized on glutathione sepharose beads incubated with [35S]methionine-labeled in vitro translated HIF-1α in modified GBT buffer (10% glycerol, 50 mM Hepes-NaOH pH 7.5, 170 mM KCl, 7.5 mM MgCl2, 0.1 mM EDTA, 0.1 mM DTT, 1% Triton X-100), 4°C, 3 h; only the target …

Substance | binding [1] | binding (GST-MTA1)
HIF-1α-HA (exogenous hypoxia-inducible factor-1α) (from UniProt Q16665 1-826) | binds | 
endogenous HIF-1α (hypoxia-inducible factor-1α) (from UniProt Q16665 1-826) | binds | 
in vitro translated HIF-1α (from UniProt Q16665 1-826) |  | binds
